# Experimental data: the supplement of paper PMC9135407
# “And” between values parts separate entries of the source, which are not always exact repeats. Equal values may be shown once. Where a name gives a salt, the structure may show the parent alone. ± gives the standard deviation of the averaged measurements. This is one part of the list. Baselines shift from plate to plate; read single values as rough.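 Assay uses culture-activated primary human stellate myofibroblasts; lipid droplet recovery indicates inactivation. Measured: proportion of Hoechst-counted cells over a plate-specific Bodipy cutoff, duplicate wells, DMSO and nortriptyline as per-plate negative and positive controls. A hit scores, control-normalized, above the plate's top-tenth-percentile nortriptyline wells or ranks among its three best wells. Final well concentrations not reported.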
# System: primary human hepatic stellate cells (donor 1)
# Assay: percent Bodipy-positive cells; higher = more lipid droplet accumulation
# Details: 48 h
# Experimental: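 Primary lipid accumulation screen in primary human hepatic stellate cell myofibroblasts (donor 1, passage 8) in 384-well plates. 100 nL of library compound was pin-transferred into 30 µL medium in duplicate, and cells were treated for 48 h. The 'Scaled' score combines distance from plate baseline, toxicity and reproducibility penalties, and is normalised to nortriptyline (positive) and DMSO (negative) controls on each plate. A hit is defined as scaled >0.85 or among the top 3 wells per plate.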
# [1] = library stock concentration: 3.33 mM
# [2] = library stock concentration: 10 mM
# [3] = library stock concentration: 4.9 mM
# [4] = library stock concentration: 1 mM
# [5] = library stock concentration: 400 uM
# [6] = library stock concentration: 2 mM
smiles,measurement,setting,value
NC[C@@H]1O[C@H](O[C@H]2[C@@H](O)[C@H](O[C@@H]3[C@@H](O)[C@H](N)C[C@H](N)[C@H]3O[C@H]3O[C@H](CO)[C@@H](O)[C@H](O)[C@H]3N)O[C@@H]2CO)[C@H](N)[C@@H](O)[C@@H]1O [Paromomycin sulfate],percent Bodipy-positive cells,,10 ± 0.21%
CC[C@]1(O)C[C@H]2CN(CCc3c([nH]c4ccccc34)[C@@](C(=O)OC)(c3cc4c(cc3OC)N(C=O)[C@H]3[C@@](O)(C(=O)OC)[C@H](OC(C)=O)[C@]5(CC)C=CCN6CC[C@]43[C@@H]65)C2)C1 [Vincristine],percent Bodipy-positive cells,[1],50.7 ± 0.43%
same,percent Bodipy-positive cells,[2],73.4 ± 5.2%
COc1ccccc1OCC(O)CO (stereo not given) [Guaifenesin],percent Bodipy-positive cells,,11.2 ± 7.1%
same,percent Bodipy-positive cells,[1],6.93 ± 5.4%
same,percent Bodipy-positive cells,[2],29.4% and 10.5%
Cc1c(N(C)C)c(=O)n(-c2ccccc2)n1C [Aminophenazone],percent Bodipy-positive cells,[2],14.3 ± 0.88%
Cc1c(N(C)C)c(=O)n(-c2ccccc2)n1C [Amidopyrine],percent Bodipy-positive cells,,29.1 ± 2.4%
same,percent Bodipy-positive cells,[1],8.39 ± 6.8%
same,percent Bodipy-positive cells,[2],15 ± 4.2%
Cc1c(N(C)C)c(=O)n(-c2ccccc2)n1C [Aminopyrine],percent Bodipy-positive cells,library stock concentration: 8.6 mM,13.6 ± 2.8%
Oc1c(Cl)cc(Cl)c(Cl)c1Cc1c(O)c(Cl)cc(Cl)c1Cl [Hexachlorophene],percent Bodipy-positive cells,[3],12.3 ± 3.8%
same,percent Bodipy-positive cells,[2],37.5 ± 12%
Oc1c(Cl)cc(Cl)c(Cl)c1Cc1c(O)c(Cl)cc(Cl)c1Cl,percent Bodipy-positive cells,[2],55.2 ± 4%
CCCCC[C@H](O)/C=C/C1=C(CCCCCCC(=O)O)C(=O)CC1 [Prostaglandin B1],percent Bodipy-positive cells,[4],12.1% and 12.3%
CCOc1cc2ncc(C#N)c(Nc3ccc(F)c(Cl)c3)c2cc1NC(=O)/C=C/CN(C)C [Pelitinib (EKB-569)],percent Bodipy-positive cells,[2],98.8 ± 1.8%
CCOc1cc2ncc(C#N)c(Nc3ccc(F)c(Cl)c3)c2cc1NC(=O)/C=C/CN(C)C,percent Bodipy-positive cells,library stock concentration: 80 uM,22.6 ± 2.7%
same,percent Bodipy-positive cells,[5],13 ± 2.8%
same,percent Bodipy-positive cells,[6],40.7 ± 6.1%
CCCc1c(-c2ccc(O)cc2)nn(-c2ccc(O)cc2)c1-c1ccc(O)cc1 [Propylpyrazole Triol],percent Bodipy-positive cells,[4],8.06 ± 1.5%
"CCCc1c(-c2ccc(O)cc2)nn(-c2ccc(O)cc2)c1-c1ccc(O)cc1 [1,3,5-tris(4-hydroxyphenyl)-4-propyl-1H-pyrazole]",percent Bodipy-positive cells,[2],45.3 ± 16%
NC(=O)c1ccc2[nH]ccc2c1,percent Bodipy-positive cells,[5],20.7 ± 1.3%
same,percent Bodipy-positive cells,[6],14 ± 4.4%
C=C1C(=O)[C@]23[C@H](O)[C@H]1CC[C@H]2[C@@]12CO[C@]3(O)[C@@H](O)[C@@H]1C(C)(C)CC[C@@H]2O [Oridonin],percent Bodipy-positive cells,[1],15.3 ± 5.4%
same,percent Bodipy-positive cells,[2],99.55 ± 0.63%
Cc1ccc(-c2ccc3c(ccc4sc5c(c43)NC[C@@H](C)NC5=O)n2)cn1,percent Bodipy-positive cells,[2],93.9 ± 1.5%
CC1(C)CC(=O)c2c(C(F)(F)F)nn(-c3ccc(C(N)=O)c(N[C@H]4CC[C@H](OC(=O)CN)CC4)c3)c2C1,percent Bodipy-positive cells,[2],79.68 ± 0.55%
Cc1cc(/C=C/C#N)cc(C)c1Nc1ccnc(Nc2ccc(C#N)cc2)n1 [Rilpivirine],percent Bodipy-positive cells,[1],32.6 ± 15%
same,percent Bodipy-positive cells,[2],64.9 ± 26%
O=C(Nc1cc(C(F)(F)F)cc(C(F)(F)F)c1)c1cc(Cl)ccc1O,percent Bodipy-positive cells,[2],98.8 ± 1.6%
Cc1nc(N)sc1-c1ccnc(Nc2ccc(N3CCOCC3)cc2)n1,percent Bodipy-positive cells,[2],98.2 ± 1.2%
CCOC(=O)C1=C(COCCN)NC(C)=C(C(=O)OC)C1c1ccccc1Cl (stereo not given) [Amlodipine],percent Bodipy-positive cells,[1],56.6 ± 8.8%
same,percent Bodipy-positive cells,[3],9.34 ± 2.2%
same,percent Bodipy-positive cells,[2],91.5 ± 6.3%
CCOC(=O)C1=C(COCCN)NC(C)=C(C(=O)OC)C1c1ccccc1Cl (stereo not given) [Amlodipine besylate],percent Bodipy-positive cells,library stock concentration: 3.5 mM,2.32 ± 1.6%

# In a second layout: results already given
smiles	measurement	setting	value
NC(=O)c1ccc2[nH]ccc2c1	percent Bodipy-positive cells	[6]	14 ± 4.4%
C=C1C(=O)[C@]23[C@H](O)[C@H]1CC[C@H]2[C@@]12CO[C@]3(O)[C@@H](O)[C@@H]1C(C)(C)CC[C@@H]2O [Oridonin]	percent Bodipy-positive cells	[1]	15.3 ± 5.4%
